Paper PMC10272166
These are yes or no findings as the source states them, for the method shown. In cells and extracts the contact can be indirect. Some binding calls cover weakened binding; strength is not graded here. For part of these data: Tags and fused reporters may be left off the sequences shown.

Protein sequences, listed by entry. Tags and fused reporters are not part of them. Residues count along the entry.
UniProt P07724, residues 25-608: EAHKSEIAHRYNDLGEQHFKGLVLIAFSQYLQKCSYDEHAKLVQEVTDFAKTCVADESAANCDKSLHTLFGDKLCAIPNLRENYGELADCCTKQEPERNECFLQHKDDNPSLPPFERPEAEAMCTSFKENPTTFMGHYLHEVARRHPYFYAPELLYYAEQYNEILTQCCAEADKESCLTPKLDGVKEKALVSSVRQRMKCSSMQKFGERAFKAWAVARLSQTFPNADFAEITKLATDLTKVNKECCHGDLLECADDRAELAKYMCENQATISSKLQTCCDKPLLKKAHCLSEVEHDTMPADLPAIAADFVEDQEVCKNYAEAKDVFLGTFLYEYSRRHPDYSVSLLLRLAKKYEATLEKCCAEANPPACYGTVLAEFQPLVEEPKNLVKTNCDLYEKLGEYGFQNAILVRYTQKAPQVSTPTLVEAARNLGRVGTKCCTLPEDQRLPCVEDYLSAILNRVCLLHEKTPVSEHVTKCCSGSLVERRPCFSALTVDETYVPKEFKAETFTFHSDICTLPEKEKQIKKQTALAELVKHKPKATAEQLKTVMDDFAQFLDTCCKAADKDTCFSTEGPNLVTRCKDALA
UniProt P02768, residues 25-609: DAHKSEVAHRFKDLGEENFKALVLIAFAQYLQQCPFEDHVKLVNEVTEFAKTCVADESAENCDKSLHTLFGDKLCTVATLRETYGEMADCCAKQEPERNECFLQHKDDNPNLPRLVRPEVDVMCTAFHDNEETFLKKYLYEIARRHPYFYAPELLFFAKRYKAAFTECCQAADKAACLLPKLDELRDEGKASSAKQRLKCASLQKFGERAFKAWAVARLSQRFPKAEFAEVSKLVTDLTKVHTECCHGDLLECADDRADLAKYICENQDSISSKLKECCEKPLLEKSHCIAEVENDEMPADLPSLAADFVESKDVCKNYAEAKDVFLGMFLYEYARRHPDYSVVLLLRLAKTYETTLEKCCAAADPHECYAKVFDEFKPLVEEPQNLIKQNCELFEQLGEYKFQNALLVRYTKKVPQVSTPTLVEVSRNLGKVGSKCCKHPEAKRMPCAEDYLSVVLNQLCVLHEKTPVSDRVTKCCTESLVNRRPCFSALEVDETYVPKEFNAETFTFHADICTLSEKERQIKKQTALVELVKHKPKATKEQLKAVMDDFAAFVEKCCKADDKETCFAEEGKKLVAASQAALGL

Assays:
[1] = molecular target: albumin (mouse liver, endogenous) (mouse (endogenous in mouse liver)) (UniProt P07724); test: co-IP; mouse liver homogenised in RIPA buffer; anti-albumin IgG or isotype control IgG with protein-G agarose, western blot; mice on normal or Western diet; also 8-week- and 10-month-old livers
[2] = molecular target: albumin (endogenous in HepG2) (human (endogenous in HepG2)) (UniProt P02768); test: co-IP; HepG2 lysate (20 mM Tris pH 7.5, 150 mM NaCl, 1% Triton X-100); anti-albumin IgG or isotype control IgG with protein-G agarose, western blot
[3] = molecular target: GFP-Albumin-1-609 (Full length) (human) (UniProt P02768); test: co-IP; HEK293T transfected with the indicated vectors, lysate (20 mM Tris pH 7.5, 150 mM NaCl, 1% Triton X-100); anti-GFP nanobody agarose beads, 2 h at 4 °C, western blot; also after treatment of the cells with 17-AAG

Binder	binding [3]	other results
carnitine palmitoyltransferase 2 (mouse liver, endogenous) (protein, UniProt P52825 26-658) SAVSGPAEYLQHSIVPTMHYQDSLPRLPIPKLEDTMKRYLSAQKPLLNDSQFRKTEVLCKDFENGIGKELHAHLLAQDKQNKHTSYISGPWFDMYLTARDSVVLNFNPFMAFNPDPKSEYNDQLTRATNLTVSAVRFLKTLRAGLLEPEVFHLNPARSDTDAFKRLIRFVPSSLSWYGAYLVNAYPLDMSQYFRLFNSTRIPKPSRDELFTDTKARHLLVLRKGHFYVFDVLDQDGNIVNPSEIQAHLKYILSDSSPVPEFPLAYLTSENRDVWAELRQKLIHGGNEETLRKVDSAVFCLCLDDFPMKDLVHLSHTMLHGDGTNRWFDKSFNLIVAKDGTAAVHFEHAWGDGVAVLRFFNEVFRDSTQTPAIAPQSQPAATDSSVSVQKLSFKLSSALKAGVTAAKEKFDATMKTLTIDAIQFQRGGKEFLKKKKLSPDAVAQLAFQMAFLRQYGQTVATYESCSTAAFKHGRTETIRPASIFTKRCSEAFVREPSKHSVGELQHMMAECSKYHGQLTKEAAMGQGFDRHLFALRYLAAARGVTLPELYQDPAYQRINHNILSTSTLSSPAVSLGGFAPVVPDGFGIAYAVHDDWIGCNVSSYSGRNAREFLHCVQKCLEDMFDALEGKAIKT	–	binding [1]: binds
carnitine palmitoyltransferase 2 (endogenous in HepG2) (protein, UniProt P23786 26-658) SAGSGPGQYLQRSIVPTMHYQDSLPRLPIPKLEDTIRRYLSAQKPLLNDGQFRKTEQFCKSFENGIGKELHEQLVALDKQNKHTSYISGPWFDMYLSARDSVVLNFNPFMAFNPDPKSEYNDQLTRATNMTVSAIRFLKTLRAGLLEPEVFHLNPAKSDTITFKRLIRFVPSSLSWYGAYLVNAYPLDMSQYFRLFNSTRLPKPSRDELFTDDKARHLLVLRKGNFYIFDVLDQDGNIVSPSEIQAHLKYILSDSSPAPEFPLAYLTSENRDIWAELRQKLMSSGNEESLRKVDSAVFCLCLDDFPIKDLVHLSHNMLHGDGTNRWFDKSFNLIIAKDGSTAVHFEHSWGDGVAVLRFFNEVFKDSTQTPAVTPQSQPATTDSTVTVQKLNFELTDALKTGITAAKEKFDATMKTLTIDCVQFQRGGKEFLKKQKLSPDAVAQLAFQMAFLRQYGQTVATYESCSTAAFKHGRTETIRPASVYTKRCSEAFVREPSRHSAGELQQMMVECSKYHGQLTKEAAMGQGFDRHLFALRHLAAAKGIILPELYLDPAYGQINHNVLSTSTLSSPAVNLGGFAPVVSDGFGVGYAVHDNWIGCNVSSYPGRNAREFLQCVEKALEDMFDALEGKSIKS	–	binding [2]: binds
carnitine palmitoyltransferase 2 (endogenous in HEK293T) (protein, UniProt P23786 26-658) SAGSGPGQYLQRSIVPTMHYQDSLPRLPIPKLEDTIRRYLSAQKPLLNDGQFRKTEQFCKSFENGIGKELHEQLVALDKQNKHTSYISGPWFDMYLSARDSVVLNFNPFMAFNPDPKSEYNDQLTRATNMTVSAIRFLKTLRAGLLEPEVFHLNPAKSDTITFKRLIRFVPSSLSWYGAYLVNAYPLDMSQYFRLFNSTRLPKPSRDELFTDDKARHLLVLRKGNFYIFDVLDQDGNIVSPSEIQAHLKYILSDSSPAPEFPLAYLTSENRDIWAELRQKLMSSGNEESLRKVDSAVFCLCLDDFPIKDLVHLSHNMLHGDGTNRWFDKSFNLIIAKDGSTAVHFEHSWGDGVAVLRFFNEVFKDSTQTPAVTPQSQPATTDSTVTVQKLNFELTDALKTGITAAKEKFDATMKTLTIDCVQFQRGGKEFLKKQKLSPDAVAQLAFQMAFLRQYGQTVATYESCSTAAFKHGRTETIRPASVYTKRCSEAFVREPSRHSAGELQQMMVECSKYHGQLTKEAAMGQGFDRHLFALRHLAAAKGIILPELYLDPAYGQINHNVLSTSTLSSPAVNLGGFAPVVSDGFGVGYAVHDNWIGCNVSSYPGRNAREFLQCVEKALEDMFDALEGKSIKS	binds	–
FLAG-CPT2-26-658 (domain or fragment, UniProt P23786 26-658) SAGSGPGQYLQRSIVPTMHYQDSLPRLPIPKLEDTIRRYLSAQKPLLNDGQFRKTEQFCKSFENGIGKELHEQLVALDKQNKHTSYISGPWFDMYLSARDSVVLNFNPFMAFNPDPKSEYNDQLTRATNMTVSAIRFLKTLRAGLLEPEVFHLNPAKSDTITFKRLIRFVPSSLSWYGAYLVNAYPLDMSQYFRLFNSTRLPKPSRDELFTDDKARHLLVLRKGNFYIFDVLDQDGNIVSPSEIQAHLKYILSDSSPAPEFPLAYLTSENRDIWAELRQKLMSSGNEESLRKVDSAVFCLCLDDFPIKDLVHLSHNMLHGDGTNRWFDKSFNLIIAKDGSTAVHFEHSWGDGVAVLRFFNEVFKDSTQTPAVTPQSQPATTDSTVTVQKLNFELTDALKTGITAAKEKFDATMKTLTIDCVQFQRGGKEFLKKQKLSPDAVAQLAFQMAFLRQYGQTVATYESCSTAAFKHGRTETIRPASVYTKRCSEAFVREPSRHSAGELQQMMVECSKYHGQLTKEAAMGQGFDRHLFALRHLAAAKGIILPELYLDPAYGQINHNVLSTSTLSSPAVNLGGFAPVVSDGFGVGYAVHDNWIGCNVSSYPGRNAREFLQCVEKALEDMFDALEGKSIKS	binds	–
FLAG-CPT2-179-658 (domain or fragment, UniProt P23786 179-658) NPAKSDTITFKRLIRFVPSSLSWYGAYLVNAYPLDMSQYFRLFNSTRLPKPSRDELFTDDKARHLLVLRKGNFYIFDVLDQDGNIVSPSEIQAHLKYILSDSSPAPEFPLAYLTSENRDIWAELRQKLMSSGNEESLRKVDSAVFCLCLDDFPIKDLVHLSHNMLHGDGTNRWFDKSFNLIIAKDGSTAVHFEHSWGDGVAVLRFFNEVFKDSTQTPAVTPQSQPATTDSTVTVQKLNFELTDALKTGITAAKEKFDATMKTLTIDCVQFQRGGKEFLKKQKLSPDAVAQLAFQMAFLRQYGQTVATYESCSTAAFKHGRTETIRPASVYTKRCSEAFVREPSRHSAGELQQMMVECSKYHGQLTKEAAMGQGFDRHLFALRHLAAAKGIILPELYLDPAYGQINHNVLSTSTLSSPAVNLGGFAPVVSDGFGVGYAVHDNWIGCNVSSYPGRNAREFLQCVEKALEDMFDALEGKSIKS	binds	–
ACSL1 (in HEK293T) (protein, UniProt P33121 1-698) MQAHELFRYFRMPELVDFRQYVRTLPTNTLMGFGAFAALTTFWYATRPKPLKPPCDLSMQSVEVAGSGGARRSALLDSDEPLVYFYDDVTTLYEGFQRGIQVSNNGPCLGSRKPDQPYEWLSYKQVAELSECIGSALIQKGFKTAPDQFIGIFAQNRPEWVIIEQGCFAYSMVIVPLYDTLGNEAITYIVNKAELSLVFVDKPEKAKLLLEGVENKLIPGLKIIVVMDAYGSELVERGQRCGVEVTSMKAMEDLGRANRRKPKPPAPEDLAVICFTSGTTGNPKGAMVTHRNIVSDCSAFVKATENTVNPCPDDTLISFLPLAHMFERVVECVMLCHGAKIGFFQGDIRLLMDDLKVLQPTVFPVVPRLLNRMFDRIFGQANTTLKRWLLDFASKRKEAELRSGIIRNNSLWDRLIFHKVQSSLGGRVRLMVTGAAPVSATVLTFLRAALGCQFYEGYGQTECTAGCCLTMPGDWTAGHVGAPMPCNLIKLVDVEEMNYMAAEGEGEVCVKGPNVFQGYLKDPAKTAEALDKDGWLHTGDIGKWLPNGTLKIIDRKKHIFKLAQGEYIAPEKIENIYMRSEPVAQVFVHGESLQAFLIAIVVPDVETLCSWAQKRGFEGSFEELCRNKDVKKAILEDMVRLGKDSGLKPFEQVKGITLHPELFSIDNGLLTPTMKAKRPELRNYFRSQIDDLYSTIKV	binds	–
